Numbering of substitutions follows the chain as printed. These are yes or no findings as the source states them, for the method shown. Some binding calls cover weakened binding; strength is not graded here.
B1: soluble MICA generated from pKK52 (tight loop 1 insert T-3.1) (designed binder)
chain: HHHHHHEPHSLRYNLTVLSWDGSVQSGFLTEVHLDGQPFLRCDRQKCRAKPQGQWAEDVLGNKTWDRETRDLTGNGKDLRMTLAHIKDQKEGLHSLQEIRVCEIHEDNSTRSSQHFYYDGELFLSQNLETEEWTMPQSSRAQTLAMNVRNFLKEDAMKTKTHYHAMHADCLQELRRYLKSGVVLRRTVPPMVNTSRGDHPRTQCRASGFYPWNITLSWRQDGVSLSHDTQQWGDVLPDGNGTYQTWVATRICQGEEQRFTCYMEHSGNHSTHPVPSGK
notes: From pSW324 (from pKK34: His6, Glu125); secreted by 293T cells; also called 1-T-3.1
B2: soluble MICA generated from pKK54 (tight loop 1 insert T-3.3) (designed binder)
chain: B1 chain with T194R, S195V, R196P, G197R, D198G, H199D, P200S, R201D, T202L, Q203T
notes: From pSW324 (from pKK34: His6, Glu125); secreted by 293T cells; also called 1-T-3.3
B3: soluble MICA generated from pKK53 (tight loop 1 insert T-3.5) (designed binder)
chain: B1 chain with T194G, H199S, P200L, R201I, T202M, Q203H
notes: From pSW324 (from pKK34: His6, Glu125); secreted by 293T cells; also called 1-T-3.5
B4: soluble MICA generated from pKK56 (tight loop 1 insert T-5.3) (designed binder)
chain: B1 chain with T194H, S195L, R196A, G197R, D198G, H199D, P200D, R201L, Q203Y
notes: From pSW324 (from pKK34: His6, Glu125); secreted by 293T cells; also called 1-T-5.3
B5: soluble MICA generated from pKK55 (tight loop 1 insert T-5.1) (designed binder)
chain: B1 chain with T194V, S195T, H199T, P200F, R201T, T202Q, Q203S
notes: From pSW324 (from pKK34: His6, Glu125); secreted by 293T cells; also called 1-T-5.1
B6: soluble MICA generated from pKK49 (loop 3 insert extended 3.3sp) (designed binder)
chain: EPHSLRYNLTVLSWDGSVQSGFLTEVHLDGQPFLRCDRQKCRAKPQGQWAEDVLGNKTWDRETRDLTGNGKDLRMTLAHIKDQKEGLHSLQEIRVCEIHEDNSTRSSQHFYYDGELFLSQNLETKEWTMPQSSRAQTLAMNVRNFLKEDAMKTKTHYHAMHADCLQELRRYLKSGVVLRRTVPPMVNVTRSEASEGNITVTCRASGFYPWNITLSWRQDGVSLSHDTQQWGDVLPDGNGTYQTWVATRISGGSGGGSRVPRGDSDLTSGGSGGGCYMEHSGNHSTHPVPSGK
notes: From pSW276 (no N-terminal His tag, Lys125); secreted by 293T cells; also called 3-3.3sp
B7: soluble MICA generated from pKK50 (loop 3 insert extended 5.1sp) (designed binder)
chain: B6 chain with R258V, V259T, P260R, R261G, G262D, D263T, S264F, D265T, L266Q, T267S
notes: From pSW276 (no N-terminal His tag, Lys125); secreted by 293T cells; also called 3-5.1sp
B8: soluble MICA generated from pKK51 (loop 3 insert extended 5.3sp) (designed binder)
chain: B6 chain with R258H, V259L, P260A, S264D, D265L, L266T, T267Y
notes: From pSW276 (no N-terminal His tag, Lys125); secreted by 293T cells; also called 3-5.3sp
B9: M13 phage pKK136 displaying MICA α3 domain with loop 1 insert 5.1sp and loop 3 insert 3.2sp (designed binder)
chain: TVPPMVNVTSGGSGGGSVTRGDTFTQSSGGSGGGVTCRASGFYPWNITLSWRQDGVSLSHDTQQWGDVLPDGNGTYQTWVATRISGGSGGGSTSRGDHPRTQSGGSGGGCYMEHSGNHSTHPVPSGK
notes: also called 1-5.1sp/3-3.2sp; not shown: C-terminal portion of M13 gene III protein, fused at codon position 198
B10: M13 phage pKK139 displaying MICA α3 domain with loop 1 insert 5.1sp and loop 3 insert 5.1spNH (designed binder)
chain: B9 chain with T93V, S94T, H98T, P99F, R100T, T101Q, Q102S
notes: also called 1-5.1sp/3-5.1spNH; not shown: C-terminal portion of M13 gene III protein, fused at codon position 198
B11: M13 phage pKK138 displaying MICA α3 domain with loop 1 insert 5.1sp and loop 3 insert 5.3sp (designed binder)
chain: B9 chain with T93H, S94L, R95A, G96R, D97G, H98D, P99D, R100L, Q102Y
notes: also called 1-5.1sp/3-5.3sp; not shown: C-terminal portion of M13 gene III protein, fused at codon position 198
B12: M13 phage pKK93 displaying MICA α3 domain with loop 1 insert 3.2 (designed binder)
chain: TVPPMVNVTRTSRGDHPRTQVTCRASGFYPWNITLSWRQDGVSLSHDTQQWGDVLPDGNGTYQTWVATRICQGEEQRFTCYMEHSGNHSTHPVPSGK
notes: also called 1-3.2; not shown: C-terminal portion of M13 gene III protein, fused at codon position 198
B13: M13 phage pKK94 displaying MICA α3 domain with loop 1 insert 3.3 (designed binder)
chain: TVPPMVNVTRVPRGDSDLTVTCRASGFYPWNITLSWRQDGVSLSHDTQQWGDVLPDGNGTYQTWVATRICQGEEQRFTCYMEHSGNHSTHPVPSGK
notes: also called 1-3.3; not shown: C-terminal portion of M13 gene III protein, fused at codon position 198
B14: M13 phage pKK96 displaying MICA α3 domain with loop 1 insert 5.1 (designed binder)
chain: B13 chain with R10V, V11T, P12R, R13G, G14D, D15T, S16F, D17T, L18Q, T19S
notes: also called 1-5.1; not shown: C-terminal portion of M13 gene III protein, fused at codon position 198
B15: M13 phage pKK98 displaying MICA α3 domain with loop 1 insert 5.3 (designed binder)
chain: B13 chain with R10H, V11L, P12A, S16D, D17L, L18T, T19Y
notes: also called 1-5.3; not shown: C-terminal portion of M13 gene III protein, fused at codon position 198
B16: M13 phage pKK92 displaying MICA α3 domain with loop 1 insert 3.1 (designed binder)
chain: TVPPMVNVTSRGDHPRTQVTCRASGFYPWNITLSWRQDGVSLSHDTQQWGDVLPDGNGTYQTWVATRICQGEEQRFTCYMEHSGNHSTHPVPSGK
notes: also called 1-3.1; not shown: C-terminal portion of M13 gene III protein, fused at codon position 198
B17: M13 phage pKK104 displaying MICA α3 domain with loop 3 insert 3.2sp (designed binder)
chain: TVPPMVNVTRSEASEGNITVTCRASGFYPWNITLSWRQDGVSLSHDTQQWGDVLPDGNGTYQTWVATRISGGSGGGSTSRGDHPRTQSGGSGGGCYMEHSGNHSTHPVPSGK
notes: also called 3-3.2sp; not shown: C-terminal portion of M13 gene III protein, fused at codon position 198
B18: M13 phage pKK105 displaying MICA α3 domain with loop 3 insert 3.3sp (designed binder)
chain: B17 chain with T78R, S79V, R80P, G81R, D82G, H83D, P84S, R85D, T86L, Q87T
notes: also called 3-3.3sp; not shown: C-terminal portion of M13 gene III protein, fused at codon position 198
B19: M13 phage pKK107 displaying MICA α3 domain with tight loop 1 insert T-3.1 (designed binder)
chain: TVPPMVNTSRGDHPRTQCRASGFYPWNITLSWRQDGVSLSHDTQQWGDVLPDGNGTYQTWVATRICQGEEQRFTCYMEHSGNHSTHPVPSGK
notes: also called 1-T-3.1; not shown: C-terminal portion of M13 gene III protein, fused at codon position 198
B20: M13 phage pKK110 displaying MICA α3 domain with tight loop 1 insert T-5.1 (designed binder)
chain: B19 chain with T8V, S9T, H13T, P14F, R15T, T16Q, Q17S
notes: also called 1-T-5.1; not shown: C-terminal portion of M13 gene III protein, fused at codon position 198
B21: M13 phage pKK111 displaying MICA α3 domain with tight loop 1 insert T-5.3 (designed binder)
chain: B19 chain with T8H, S9L, R10A, G11R, D12G, H13D, P14D, R15L, Q17Y
notes: also called 1-T-5.3; not shown: C-terminal portion of M13 gene III protein, fused at codon position 198
B22: M13 phage pKK97 displaying MICA α3 domain with loop 1 insert 5.2 (designed binder)
chain: TVPPMVNVTRGDTFTQSVTCRASGFYPWNITLSWRQDGVSLSHDTQQWGDVLPDGNGTYQTWVATRICQGEEQRFTCYMEHSGNHSTHPVPSGK
notes: also called 1-5.2; not shown: C-terminal portion of M13 gene III protein, fused at codon position 198
B23: M13 phage pKK101 displaying MICA α3 domain with loop 1 insert 3.3sp (designed binder)
chain: TVPPMVNVTSGGSGGGSRVPRGDSDLTSGGSGGGVTCRASGFYPWNITLSWRQDGVSLSHDTQQWGDVLPDGNGTYQTWVATRICQGEEQRFTCYMEHSGNHSTHPVPSGK
notes: also called 1-3.3sp; not shown: C-terminal portion of M13 gene III protein, fused at codon position 198
B24: M13 phage pKK103 displaying MICA α3 domain with loop 1 insert 5.3sp (designed binder)
chain: B23 chain with R18H, V19L, P20A, S24D, D25L, L26T, T27Y
notes: also called 1-5.3sp; not shown: C-terminal portion of M13 gene III protein, fused at codon position 198
B25: M13 phage pKK102 displaying MICA α3 domain with loop 1 insert 5.1sp (designed binder)
chain: B23 chain with R18V, V19T, P20R, R21G, G22D, D23T, S24F, D25T, L26Q, T27S
notes: also called 1-5.1sp; not shown: C-terminal portion of M13 gene III protein, fused at codon position 198
B26: MICA-α3-iFv.1 (designed binder)
chain: EPHSLRYNLTVLSWDGSVQSGFLTEVHLDGQPFLRCDRQKCRAKPQGQWAEDVLGNKTWDRETRDLTGNGKDLRMTLAHIKDQKEGLHSLQEIRVCEIHEDNSTRSSQHFYYDGELFLSQNLETKEWTMPQSSRAQTLAMNVRNFLKEDAMKTKTHYHAMHADCLQELRRYLKSGVVLRRTVPPMVQVTRSEASGDRVTITCRASQDVSTAVAWYQQKPGKAPKLLIYSASFLYSGVPSRFSGSGSGTDFTLTISSLQPEDFATYYCQQSYTTPPTFGQGTKVEIKGGSSRSSSSGGGGSGGGGEVQLVESGGGLVQPGGSLRLSCAASGFTFTSTGISWVRQAPGKGLEWVGRIYPTNGSTNYADSVKGRFTISADTSKNTAYLQMNSLRAEDTAVYYCARTYGIYDLYVDYTEYVMDYWGQGTLVTVSSGGSSRSSSSGGGGSGGGGDIQMTQSPSSLSASGQITVTCRASGFYPWNITLSWRQDGVSLSHDTQQWGDVLPDGQGTYQTWVATRISQGEEQRFTCYMEHSGQHSTHPVPSGKGSHHHHHH

The chains behind the UniProt entries cited, without tags or fusion partners. Where a name states a change or a piece, a line headed by the entry shows the natural chain unless it says otherwise. Residues count along the entry.
UniProt P06756: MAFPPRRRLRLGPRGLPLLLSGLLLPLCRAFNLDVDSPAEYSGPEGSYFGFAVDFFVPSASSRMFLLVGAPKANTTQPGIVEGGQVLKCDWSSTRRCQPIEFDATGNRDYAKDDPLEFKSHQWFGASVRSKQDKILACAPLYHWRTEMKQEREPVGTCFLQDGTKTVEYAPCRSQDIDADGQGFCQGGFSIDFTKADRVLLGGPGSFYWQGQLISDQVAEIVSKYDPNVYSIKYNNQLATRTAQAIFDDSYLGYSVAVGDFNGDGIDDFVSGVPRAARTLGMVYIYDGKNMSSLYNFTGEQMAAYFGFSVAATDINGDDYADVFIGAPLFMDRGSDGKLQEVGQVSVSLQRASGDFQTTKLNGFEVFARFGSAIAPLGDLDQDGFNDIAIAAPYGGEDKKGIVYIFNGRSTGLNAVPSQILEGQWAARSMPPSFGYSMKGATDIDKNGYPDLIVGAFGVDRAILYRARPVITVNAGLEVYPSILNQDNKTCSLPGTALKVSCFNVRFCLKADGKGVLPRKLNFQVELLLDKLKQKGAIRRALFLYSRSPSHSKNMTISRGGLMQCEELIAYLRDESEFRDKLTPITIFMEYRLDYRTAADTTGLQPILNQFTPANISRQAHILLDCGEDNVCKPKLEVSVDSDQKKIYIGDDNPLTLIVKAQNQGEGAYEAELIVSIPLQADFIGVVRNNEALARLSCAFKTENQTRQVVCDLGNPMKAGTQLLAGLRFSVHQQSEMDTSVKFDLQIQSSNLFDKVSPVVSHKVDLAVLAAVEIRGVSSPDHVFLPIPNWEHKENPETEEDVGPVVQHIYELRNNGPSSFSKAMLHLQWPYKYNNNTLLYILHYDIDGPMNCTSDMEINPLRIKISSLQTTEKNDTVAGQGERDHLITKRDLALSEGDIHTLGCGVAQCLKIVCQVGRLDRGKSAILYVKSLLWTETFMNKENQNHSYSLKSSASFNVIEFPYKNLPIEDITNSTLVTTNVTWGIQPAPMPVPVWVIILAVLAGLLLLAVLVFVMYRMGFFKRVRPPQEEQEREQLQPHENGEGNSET
UniProt P26718: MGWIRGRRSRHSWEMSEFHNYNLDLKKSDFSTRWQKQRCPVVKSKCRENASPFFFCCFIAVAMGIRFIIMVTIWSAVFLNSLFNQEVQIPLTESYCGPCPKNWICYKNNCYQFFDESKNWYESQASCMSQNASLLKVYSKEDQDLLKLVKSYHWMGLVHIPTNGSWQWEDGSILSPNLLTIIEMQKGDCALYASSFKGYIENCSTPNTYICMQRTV
UniProt P22607, residues 23-375: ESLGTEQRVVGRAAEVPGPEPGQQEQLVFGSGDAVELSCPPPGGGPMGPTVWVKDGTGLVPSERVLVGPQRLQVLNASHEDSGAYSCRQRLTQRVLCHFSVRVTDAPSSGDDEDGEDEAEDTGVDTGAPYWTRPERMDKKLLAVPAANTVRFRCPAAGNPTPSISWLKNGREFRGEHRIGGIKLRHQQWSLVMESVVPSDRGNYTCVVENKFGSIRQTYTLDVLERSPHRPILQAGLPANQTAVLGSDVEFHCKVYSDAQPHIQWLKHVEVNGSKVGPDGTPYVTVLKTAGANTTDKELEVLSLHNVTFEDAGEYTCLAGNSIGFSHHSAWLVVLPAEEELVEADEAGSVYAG

Target: T1, integrin αVβ5 (UniProt P06756 31-992; P18084 24-719)
T1 construct: Coated on the ELISA plate
Assay: ELISA, coated integrin, anti-MICA-HRP

Binder | binding
B1 | binds
B2 | binds
B3 | binds
B4 | binds
B5 | binds
B6 | binds
B7 | binds
B8 | binds

Target: T2, integrin αVβ3 (UniProt P06756 31-992; P05106 27-718)
T2 construct: Coated on the ELISA plate
Assay: ELISA, coated integrin, anti-MICA-HRP

Binder | binding
B1 | binds
B2 | binds
B3 | binds
B4 | binds
B5 | binds
B6 | binds
B7 | binds
B8 | binds

Target: T1, integrin αVβ5
Assay: phage ELISA, coated integrin, anti-M13-HRP

Binder | binding
B9 | binds
B10 | binds
B11 | binds
B12 | binds
B13 | binds
B14 | binds
B15 | binds
B16 | binds
B17 | binds
B18 | binds
B19 | binds
B20 | binds
B21 | binds
B22 | binds
B23 | binds
B24 | binds
B25 | binds

Target: T2, integrin αVβ3
Assay: phage ELISA, coated integrin, anti-M13-HRP

Binder | binding
B9 | binds
B10 | binds
B11 | binds
B12 | binds
B13 | binds
B14 | binds
B15 | binds
B16 | binds
B17 | binds
B18 | binds
B19 | binds
B20 | binds
B21 | binds
B22 | binds
B23 | binds
B24 | binds
B25 | binds

Target: NKG2D-Fc (detection reagent of the FGFR3 ELISA) (Homo sapiens (Human)) (UniProt P26718)
Assay: ELISA, coated FGFR3 (2 ug/ml), NKG2D-Fc and anti-Fc-HRP

Binder | binding
B26 | binds

Target: FGFR3 (coated on wells) (UniProt P22607)
Assay: as above

Binder | binding
B26 | binds

Target: NKG2D-Fc (detection reagent of the FGFR3 ELISA) (Homo sapiens (Human)) (UniProt P26718)
Assay: ELISA, coated FGFR3, detected with NKG2D-Fc

Binder | binding
B26 | binds

Target: FGFR3 (coated on wells) (UniProt P22607)
Assay: ELISA, coated FGFR3, detected with NKG2D-Fc

Binder | binding
B26 | binds

Target: FGFR3 (coated on wells) (UniProt P22607)
Assay: ELISA on FGFR3-coated wells (2 ug/ml), bound sMICA detected with NKG2D-Fc and anti-Fc-HRP

Binder | binding
B26 | binds
